Assay results from paper PMC4313621, “Hydrophobic mismatch sorts SNARE proteins into distinct membrane domains” (Nature Communications, 2015).
These are yes or no findings as the source states them, for the method shown. Some entries that bind do so weakly or less than the wild type.

Amino acid sequences for entries named in this document (tags omitted). Residues count along the entry.
UniProt P32851, residues 266-288: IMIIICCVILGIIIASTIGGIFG

Legend:
[1] = target: Syntaxin 1 TMD (residues 266-288; sx-1TM) (Rattus norvegicus) (UniProt P32851); test: FRET or BRET; sx-1TM-Rhodamine Red (donor) and sx-4TM-Atto647N (acceptor) in LUVs of porcine brain PC without or with 1 mol% PI(4,5)P2 and/or 30 mol% cholesterol; protein-to-lipid 1:1000; both purified
[2] = target: Syntaxin 1 TMD (residues 266-288; sx-1TM) (Rattus norvegicus) (UniProt P32851); test: FRET or BRET; labelled TMD peptides in liposomes of C18:1 PC or an equimolar mixture of C14:1, C16:1, C18:1 and C20:1 PC; all with 1 mol% PI(4,5)P2 and 30 mol% cholesterol; both purified

binding [1]: binds
binding [2]: binds
Binder: ALENQKKARKKKVLIAICVSITVVLLAVIIGVTVVG (peptide, UniProt Q12846 262-297, Rhodamine Red or Atto647N coupled to the N-terminus) [Syntaxin 4 TMD (residues 262-297; sx-4TM)]
